We go through 1 molecule from PMC9363421.

By UniProt entry, the sequences of proteins in these tests, tags left out. Where a name states a change or a piece, a line headed by the entry shows the natural chain unless it says otherwise.
UniProt Q06210: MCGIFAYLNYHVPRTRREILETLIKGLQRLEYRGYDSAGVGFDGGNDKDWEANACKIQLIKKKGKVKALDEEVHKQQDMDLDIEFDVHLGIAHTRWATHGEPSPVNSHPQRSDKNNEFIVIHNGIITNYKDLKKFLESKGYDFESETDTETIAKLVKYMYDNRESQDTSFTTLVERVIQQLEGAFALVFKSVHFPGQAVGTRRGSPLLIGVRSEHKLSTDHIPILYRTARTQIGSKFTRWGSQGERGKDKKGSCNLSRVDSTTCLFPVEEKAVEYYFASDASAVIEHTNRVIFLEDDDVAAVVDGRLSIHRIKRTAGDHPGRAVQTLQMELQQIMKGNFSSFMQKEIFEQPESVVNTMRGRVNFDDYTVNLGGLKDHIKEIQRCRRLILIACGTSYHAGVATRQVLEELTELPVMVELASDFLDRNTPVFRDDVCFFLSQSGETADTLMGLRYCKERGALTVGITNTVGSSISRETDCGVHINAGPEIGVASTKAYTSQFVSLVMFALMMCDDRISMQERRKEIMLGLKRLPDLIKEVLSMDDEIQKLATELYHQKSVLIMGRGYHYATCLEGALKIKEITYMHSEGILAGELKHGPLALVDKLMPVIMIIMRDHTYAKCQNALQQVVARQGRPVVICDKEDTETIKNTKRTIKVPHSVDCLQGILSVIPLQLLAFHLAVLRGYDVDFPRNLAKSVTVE

The target of this test is Flag-GFAT1 (glutamine-fructose-6-phosphate amidotransferase 1) (human) (UniProt Q06210). In words: affinity purification with mass spectrometry; Flag-GFAT1 immunoprecipitated from A549 cells with stable expression, 8 h glucose deprivation; mass spectrometry of the precipitates.

No constants are given. Whether binding was seen depends on the method and setting. In cells and extracts the contact can be indirect. A yes stands for co-enrichment or nearness to the bait. Other partners may have been found.

B1: TTLL5, endogenous (enzyme, UniProt Q6EMB2 1-1281)
chain: MPIVMARDLEETASSSEDEEVISQEDHPCIMWTGGCRRIPVLVFHADAILTKDNNIRVIGERYHLSYKIVRTDSRLVRSILTAHGFHEVHPSSTDYNLMWTGSHLKPFLLRTLSEAQKVNHFPRSYELTRKDRLYKNIIRMQHTHGFKAFHILPQTFLLPAEYAEFCNSYSKDRGPWIVKPVASSRGRGVYLINNPNQISLEENILVSRYINNPLLIDDFKFDVRLYVLVTSYDPLVIYLYEEGLARFATVRYDQGAKNIRNQFMHLTNYSVNKKSGDYVSCDDPEVEDYGNKWSMSAMLRYLKQEGRDTTALMAHVEDLIIKTIISAELAIATACKTFVPHRSSCFELYGFDVLIDSTLKPWLLEVNLSPSLACDAPLDLKIKASMISDMFTVVGFVCQDPAQRASTRPIYPTFESSRRNPFQKPQRCRPLSASDAEMKNLVGSAREKGPGKLGGSVLGLSMEEIKVLRRVKEENDRRGGFIRIFPTSETWEIYGSYLEHKTSMNYMLATRLFQDRMTADGAPELKIESLNSKAKLHAALYERKLLSLEVRKRRRRSSRLRAMRPKYPVITQPAEMNVKTETESEEEEEVALDNEDEEQEASQEESAGFLRENQAKYTPSLTALVENTPKENSMKVREWNNKGGHCCKLETQELEPKFNLMQILQDNGNLSKMQARIAFSAYLQHVQIRLMKDSGGQTFSASWAAKEDEQMELVVRFLKRASNNLQHSLRMVLPSRRLALLERRRILAHQLGDFIIVYNKETEQMAEKKSKKKVEEEEEDGVNMENFQEFIRQASEAELEEVLTFYTQKNKSASVFLGTHSKISKNNNNYSDSGAKGDHPETIMEEVKIKPPKQQQTTEIHSDKLSRFTTSAEKEAKLVYSNSSSGPTATLQKIPNTHLSSVTTSDLSPGPCHHSSLSQIPSAIPSMPHQPTILLNTVSASASPCLHPGAQNIPSPTGLPRCRSGSHTIGPFSSFQSAAHIYSQKLSRPSSAKAGSCYLNKHHSGIAKTQKEGEDASLYSKRYNQSMVTAELQRLAEKQAARQYSPSSHINLLTQQVTNLNLATGIINRSSASAPPTLRPIISPSGPTWSTQSDPQAPENHSSSPGSRSLQTGGFAWEGEVENNVYSQATGVVPQHKYHPTAGSYQLQFALQQLEQQKLQSRQLLDQSRARHQAIFGSQTLPNSNLWTMNNGAGCRISSATASGQKPTTLPQKVVPPPSSCASLVPKPPPNHEQVLRRATSQKASKGSSAEGQLNGLQSSLNPAAFVPITSSTDPAHTKI
As for B1, the binding result is given as “binds”.
